The text below walks through data of article PMC7819943, “Rice protein-binding microarrays: a tool to detect cis-acting elements near promoter regions in rice”.

Some of the results follow.

The target of the test is T1, OsSMF1 (Oryza sativa, UniProt Q6ZLB0 1-436).
T1 sequence: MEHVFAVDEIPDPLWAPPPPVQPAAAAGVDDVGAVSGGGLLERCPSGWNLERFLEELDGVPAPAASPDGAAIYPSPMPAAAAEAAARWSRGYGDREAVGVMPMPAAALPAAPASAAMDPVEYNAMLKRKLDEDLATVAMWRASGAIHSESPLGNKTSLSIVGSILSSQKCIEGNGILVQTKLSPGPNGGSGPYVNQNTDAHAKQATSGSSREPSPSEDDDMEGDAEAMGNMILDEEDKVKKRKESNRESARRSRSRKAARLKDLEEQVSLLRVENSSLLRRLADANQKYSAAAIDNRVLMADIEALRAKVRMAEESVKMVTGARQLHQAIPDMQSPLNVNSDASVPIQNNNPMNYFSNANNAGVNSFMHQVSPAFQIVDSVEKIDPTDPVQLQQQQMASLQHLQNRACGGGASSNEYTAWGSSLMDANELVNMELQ
The experiment in a line: protein-binding microarray (RPBM); PBS, 2% BSA, 51.3 ng/ul salmon testes DNA, 50 uM zinc acetate, 200 nM TF, 25 C, 1 h; high values mean tight binding. Particulars: protein: recombinant; tags: N-terminal polyhistidine and DsRed monomer fusion (pET32a); chain copies: 2; label: CyDye5-dUTP incorporated in the synthesized complementary strand; 3' TTTTT single-stranded linker to array surface; dsDNA, one strand shown. An outline of the steps: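 Transcription factors, each fused N-terminally to a polyhistidine tag and DsRed, were expressed in E. coli BL21-CodonPlus and purified on Ni–NTA. A custom Agilent array was made double-stranded by primer extension with Cy5-dUTP and blocked with 2% BSA. It was incubated with 200 nM protein in PBS, 2% BSA, salmon testes DNA and 50 µM zinc acetate at 25 °C for 1 h, then washed. The binding signal is per-feature fluorescence intensity (arbitrary units) read on an Axon 4000B scanner.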
Turning to “GAGATATCTTCTTCTCCCTTCAAGAACTCCATGGAAATCTCGGAGTCACCTAGTGCAG”, the binding signal is 7050 fluorescence intensity (a.u.).

Take “GTTTATTATATGTGTTTTGGAATCCTTCGTGTCGACATGACGGAGTCACCTAGTGCAG”: the binding signal is 3310 fluorescence intensity (a.u.).

On to “TCCGATCCGTTTGTTGTTGTTGCCGTGGCGTGCCTTGTGACGGAGTCACCTAGTGCAG”, for which the binding signal is 3240 fluorescence intensity (a.u.).

Regarding “TGGGTTGAATATGAGCTTGAATATTGGTGGAGTGATACATCGGAGTCACCTAGTGCAG”, the binding signal was 3240 fluorescence intensity (a.u.).

On to “CAGCTGGCTATAAATCTGTAGCCCGCTGCTCTTCTCTCTCCGGAGTCACCTAGTGCAG”, for which the binding signal was 3630 fluorescence intensity (a.u.).

For “AGCGAACGGCCGTCTGCCACGTCATTTTCGCCGCCCTCTGCGGAGTCACCTAGTGCAG”, the binding signal is 31900 fluorescence intensity (a.u.).

Take “CGGACGATCATGAACACATCACCAGGGGCTTAACACGCCACGGAGTCACCTAGTGCAG”: the binding signal was 4120 fluorescence intensity (a.u.).

For the sequence “TTGGTTGGATGGATGACGTTGCTGTGGCCGGCTGTTTCCACGGAGTCACCTAGTGCAG”, the binding signal is 4190 fluorescence intensity (a.u.).

Consider “ATAAAGTAACACATACACAAAGCCACATCATCAATATTTTCGGAGTCACCTAGTGCAG”, for which the binding signal is 8990 fluorescence intensity (a.u.).

Take “GTATGACGCCGTTGACTTTTCGATCAACGTTTGACTATTTCGGAGTCACCTAGTGCAG”: the binding signal is 3150 fluorescence intensity (a.u.).

In the case of “TTCATGGTTGGGCTGCCTGGCACGTCACGCCCCAATGCGTCGGAGTCACCTAGTGCAG”, the binding signal is 12500 fluorescence intensity (a.u.).

Take “ATGTGTAATGACATGACTAGGCATTCCCTTCAGTTAGTCTCGGAGTCACCTAGTGCAG”: the binding signal was 9940 fluorescence intensity (a.u.).

On to “ACGCAATATGTAAACCGTACACGTACATACCTACTAGGTACGGAGTCACCTAGTGCAG”, for which the binding signal is 3420 fluorescence intensity (a.u.).

Consider “GCAACGTCGTCGAGGCCGTCCGCCACGTGCGCTCCGTCATCGGAGTCACCTAGTGCAG”, for which the binding signal is 7380 fluorescence intensity (a.u.).

Turning to “TCGTGCTGACAACATATATACGTGCTCGATCGTACCACGGCGGAGTCACCTAGTGCAG”, the binding signal is 6560 fluorescence intensity (a.u.).

For “CTTGCATATGCACTGTCACTCTCGTACTAGGGTGTCATGCCGGAGTCACCTAGTGCAG”, the binding signal was 5420 fluorescence intensity (a.u.).

In the case of “TGACCGTTCTTCTTATTTGAAATTTTCTTATGATTAGCATCGGAGTCACCTAGTGCAG”, the binding signal is 22600 fluorescence intensity (a.u.).

For “ATGTTTCTTACATTTTGTAACGTCATCCATGTTGCTGTGACGGAGTCACCTAGTGCAG”, the binding signal is 4410 fluorescence intensity (a.u.).

With “GAGTAGTTGATGACTAACCCTGCTGCAACTAAGCTTAGGGCGGAGTCACCTAGTGCAG”, the binding signal is 3640 fluorescence intensity (a.u.).

On to “GACGGGGCGGATGGCTAGCCCCTACCTGACACGTGACACTCGGAGTCACCTAGTGCAG”, for which the binding signal is 6090 fluorescence intensity (a.u.).

Consider “GGATCCGGGCATCTGGCTGCCCCGCCGCCACTCCGCCTAGCGGAGTCACCTAGTGCAG”, for which the binding signal was 3330 fluorescence intensity (a.u.).

For the sequence “GAATGGACTAATTATTTTGCTTGTCAGCACGACGTCAGAACGGAGTCACCTAGTGCAG”, the binding signal is 5350 fluorescence intensity (a.u.).

On to “CGAGCAAACGCCGAAACGCCATGGAAACAATTTCCTGTCCCGGAGTCACCTAGTGCAG”, for which the binding signal was 38100 fluorescence intensity (a.u.).

For “CTGCCTGCGCGCACCACCACCTGCTGCTCTCTCTCTCTCGCGGAGTCACCTAGTGCAG”, the binding signal is 3650 fluorescence intensity (a.u.).

Consider “GCCAAGAGGAGAGGAGAGGGATAGGCGGCCGCCGCCCGTGCGGAGTCACCTAGTGCAG”, for which the binding signal is 3390 fluorescence intensity (a.u.).

On to “GAGCAGGGGCGATCTGTGGCCGTCCATTCGTTGTGGACGTCGGAGTCACCTAGTGCAG”, for which the binding signal was 4230 fluorescence intensity (a.u.).

For the sequence “GGATGGGCTAGAAGTCACTATTTATCATCAGTGACGTGTCCGGAGTCACCTAGTGCAG”, the binding signal was 13800 fluorescence intensity (a.u.).

As for “TTCCATTATGACCTATACGTGTCAACGAGACATCGACTCTCGGAGTCACCTAGTGCAG”, the binding signal is 9090 fluorescence intensity (a.u.).

Consider “GATGGAGCACATCATCATATTGTACAGGGAGAGATGGAGCCGGAGTCACCTAGTGCAG”, for which the binding signal was 3340 fluorescence intensity (a.u.).

“TATAGTAAAATACACGTGTCAACTTATGGAATAGCCTGTACGGAGTCACCTAGTGCAG”: the binding signal was 16300 fluorescence intensity (a.u.).

On to “TAATATATGATCATACTTGTTTTATATACATTGTGTCTTGCGGAGTCACCTAGTGCAG”, for which the binding signal was 3190 fluorescence intensity (a.u.).

As to “ATCCGGTTTTATCCGACGTGGCGGCTGAGTCGGCGCGGGACGGAGTCACCTAGTGCAG”, the binding signal is 30700 fluorescence intensity (a.u.).

As for “TCTCGTTTTCTCTTACACTGATAAATTTCTAATTTTGTTACGGAGTCACCTAGTGCAG”, the binding signal is 3280 fluorescence intensity (a.u.).

“AAAGGACAGCAATCCATGTCACACTGAGATATAAAGTGAGCGGAGTCACCTAGTGCAG”: the binding signal is 3700 fluorescence intensity (a.u.).

Turning to “CCGGCGGCAGTGGCCCGGCGGCGCCGCCACCTTCCGTGCCCGGAGTCACCTAGTGCAG”, the binding signal is 43700 fluorescence intensity (a.u.).

As to “TACGTTCTATGAATCTGTCACAAGTCATGACGCCGCGAGCCGGAGTCACCTAGTGCAG”, the binding signal is 30100 fluorescence intensity (a.u.).

For the sequence “TAATCCAGTACTACTTGCTGTGACAGTGTGATGTGCTTGTCGGAGTCACCTAGTGCAG”, the binding signal is 3540 fluorescence intensity (a.u.).

As to “ATGCCAAAGTGTTTTCCACGTAATATTACATAGTTTATAACGGAGTCACCTAGTGCAG”, the binding signal was 4470 fluorescence intensity (a.u.).

In the case of “TCTCAAGATGATCATGATGATGTTATCACATATCTCCTATCGGAGTCACCTAGTGCAG”, the binding signal is 3200 fluorescence intensity (a.u.).

“ATTTTGAAGCACAACTATATTGACTCACTTGGAAAGGTAGCGGAGTCACCTAGTGCAG”: the binding signal was 3780 fluorescence intensity (a.u.).

For “GAGAGGGTTTTGGCCAGCCGGATGGCTTAGCCATCCGGTTCGGAGTCACCTAGTGCAG”, the binding signal is 24800 fluorescence intensity (a.u.).

As to “CCCGGCAAGCCATGGAGCTGACGCTGCTGGTGTTCGTCCTCGGAGTCACCTAGTGCAG”, the binding signal is 4520 fluorescence intensity (a.u.).
